Measurements reported in PubChem BioAssay AID686938 (Drosophila RNAi Screening Center, 2013)

Aim: 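Looking for CRAC channel components and the factors controlling them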 (primary screen)
System: Drosophila S2R+ cells
Reagents: long dsRNA against Drosophila genes, about 0.25 µg dsRNA per well, roughly 10,000 cells
Timing: 5 days of knock-down before the calcium assay
Challenge: thapsigargin (SERCA pump blocker) to empty calcium stores; entry signal taken 4 min after adding it
Detection: 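Per-well fluo-4 fluorescence in two replicates, unnormalised, measured in resting cells and 4 min after store depletion by the SERCA blocker thapsigargin; ratio of the two present in few wells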
Scale: calcium entry signal: higher = stronger calcium signal after store depletion; resting calcium signal: higher = higher resting calcium signal
Active means: 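Called when the plate z-score of the entry-to-rest ratio, mean of duplicates, falls below −3; wells with low overall dye signal (Fmax z below −2) or more than five off-targets excluded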
Meaning of the calls: active = strongly reduced calcium entry; inactive = no strong reduction
The screen tested about 23,000 reagents; below is a random part of those that have a named target and a result. In the full data, 75 (0.33%) got an active call. 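Raw plate signals without normalisation; calls rest on plate z-scores that were not deposited; ratio present for only 364 wells.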 Entries without a mark were called inactive. Reagents against one gene are numbered here. Names joined by + are all predicted targets of the reagent. The record does not give: the dose of the treatment.

| target gene | dsRNA no. | calcium entry signal, replicate 1 (fluorescence units) | calcium entry signal, replicate 2 (fluorescence units) | resting calcium signal, replicate 1 (fluorescence units) | resting calcium signal, replicate 2 (fluorescence units) |
| --- | --- | --- | --- | --- | --- |
| CG32440 | 1 | 3.92e7 | 3.49e7 | 1.97e7 | 1.55e7 |
| Ac76E | 1 | 5.13e7 | 3.55e7 | 2.38e7 | 1.58e7 |
| Ac76E | 2 | 3.94e7 | 4.84e7 | 1.82e7 | 3.38e7 |
| CG9541 | 1 | 2.52e7 | 3.24e7 | 1.25e7 | 1.48e7 |
| kuk | 1 | 4.33e7 | 3.69e7 | 2.04e7 | 1.75e7 |
| Septin2 | 1 | 3.73e7 | 4.30e7 | 1.85e7 | 1.98e7 |
| CG33284 | 1 | 3.65e7 | 3.44e7 | 2.01e7 | 1.58e7 |
| Mal-A6 | 1 | 3.92e7 | 3.81e7 | 1.81e7 | 1.70e7 |
| ttv | 1 | 3.32e7 | 4.64e7 | 1.44e7 | 2.00e7 |
| CG13473 | 1 | 3.38e7 | 4.49e7 | 1.69e7 | 2.94e7 |
| Cpr64Ad | 1 | 4.18e7 | 4.04e7 | 2.04e7 | 1.80e7 |
| ReepB | 1 | 4.47e7 | 4.14e7 | 1.73e7 | 1.88e7 |
| CG42399 | 1 | 3.43e7 | 3.80e7 | 2.05e7 | 1.77e7 |
| CG42399 | 2 | 4.36e7 | 4.16e7 | 2.03e7 | 1.80e7 |
| Hmx | 1 | 3.29e7 | 7.57e7 | 1.75e7 | 3.51e7 |
| Hmx | 2 | 4.09e7 | 5.03e7 | 1.95e7 | 7.56e7 |
| Hmx | 3 | 2.88e7 | 6.53e7 | 1.63e7 | 5.72e7 |
| Hmx | 4 | 3.33e7 | 5.06e7 | 1.60e7 | 2.27e7 |
| bap | 1 | 4.75e7 | 2.41e7 | 2.10e7 | 1.26e7 |
| Tspo + rempA | 1 | 4.21e7 | – | 1.99e7 | – |
| mus301 | 1 | 2.92e7 | 3.27e7 | 1.60e7 | 1.48e7 |
| Atac2 | 1 | 4.87e7 | – | 2.07e7 | – |
| CG12075 | 1 | 3.32e7 | 3.61e7 | 1.60e7 | 1.59e7 |
| mop | 1 | 2.76e7 | 4.40e7 | 1.46e7 | 3.06e7 |
| CG6330 | 1 | 3.27e7 | 3.77e7 | 1.54e7 | 1.95e7 |
| Teh2 | 1 | 4.27e7 | 4.16e7 | 2.13e7 | 1.80e7 |
| SWIP | 1 | 3.96e7 | 2.40e7 | 2.03e7 | 1.06e7 |
| Tango2 | 1 | 3.88e7 | 4.57e7 | 1.88e7 | 2.21e7 |
| Tango2 | 2 | 4.76e7 | 3.17e7 | 2.88e7 | 1.62e7 |
| FoxL1 | 1 | 3.75e7 | 4.33e7 | 1.86e7 | 2.00e7 |
| CG32806 | 1 | 4.44e7 | 3.44e7 | 2.40e7 | 1.65e7 |
| CG31804 | 1 | 3.25e7 | 4.15e7 | 1.75e7 | 1.93e7 |
| CG8243 | 1 | 5.50e7 | 3.35e7 | 2.20e7 | 1.56e7 |
| CG8243 | 2 | 3.34e7 | 3.22e7 | 1.95e7 | 1.38e7 |
| Ran-like | 1 | 3.78e7 | 5.08e7 | 1.86e7 | 3.29e7 |
| Ssl1 | 1 | 4.04e7 | 4.56e7 | 1.83e7 | 3.50e7 |
| hui | 1 | 3.90e7 | 4.79e7 | 1.76e7 | 2.21e7 |
| asRNA:CR43476 + CG42534 | 1 | 2.94e7 | 3.17e7 | 1.78e7 | 1.54e7 |
| crp | 1 | 3.14e7 | 2.29e7 | 1.53e7 | 1.14e7 |
| CG33017 | 1 | 4.12e7 | 4.46e7 | 1.79e7 | 2.18e7 |
| CG33017 | 2 | 4.11e7 | 3.98e7 | 1.80e7 | 1.98e7 |
